No constants are given. Whether binding was seen depends on the method and setting. For some assays here: In cells and extracts the contact can be indirect. Some results given as binding are weak or reduced against the parent protein; the word gives no strength. For some assays here: Where a sequence is shown, tags or fusion partners need not be part of it.

Chains of the proteins cited; added tags and fusions are not shown. Lines headed by an entry give the natural chain unless they say otherwise; changes in a name come on top. Residues count along the entry.
UniProt Q9Y697, residues 56-457: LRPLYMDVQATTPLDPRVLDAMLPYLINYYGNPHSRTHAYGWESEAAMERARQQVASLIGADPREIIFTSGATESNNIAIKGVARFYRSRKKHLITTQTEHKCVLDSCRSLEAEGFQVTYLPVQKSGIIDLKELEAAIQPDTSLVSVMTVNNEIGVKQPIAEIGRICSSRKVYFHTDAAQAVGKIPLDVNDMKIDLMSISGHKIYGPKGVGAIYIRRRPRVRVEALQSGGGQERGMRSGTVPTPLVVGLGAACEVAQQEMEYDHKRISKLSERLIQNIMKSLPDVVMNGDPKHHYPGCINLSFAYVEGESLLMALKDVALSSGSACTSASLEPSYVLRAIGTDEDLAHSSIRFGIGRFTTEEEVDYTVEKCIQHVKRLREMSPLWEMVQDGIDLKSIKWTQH
UniProt Q9HD34: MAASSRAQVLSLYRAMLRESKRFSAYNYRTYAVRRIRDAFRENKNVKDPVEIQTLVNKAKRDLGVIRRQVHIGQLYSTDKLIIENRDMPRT
UniProt P02769, residues 25-607: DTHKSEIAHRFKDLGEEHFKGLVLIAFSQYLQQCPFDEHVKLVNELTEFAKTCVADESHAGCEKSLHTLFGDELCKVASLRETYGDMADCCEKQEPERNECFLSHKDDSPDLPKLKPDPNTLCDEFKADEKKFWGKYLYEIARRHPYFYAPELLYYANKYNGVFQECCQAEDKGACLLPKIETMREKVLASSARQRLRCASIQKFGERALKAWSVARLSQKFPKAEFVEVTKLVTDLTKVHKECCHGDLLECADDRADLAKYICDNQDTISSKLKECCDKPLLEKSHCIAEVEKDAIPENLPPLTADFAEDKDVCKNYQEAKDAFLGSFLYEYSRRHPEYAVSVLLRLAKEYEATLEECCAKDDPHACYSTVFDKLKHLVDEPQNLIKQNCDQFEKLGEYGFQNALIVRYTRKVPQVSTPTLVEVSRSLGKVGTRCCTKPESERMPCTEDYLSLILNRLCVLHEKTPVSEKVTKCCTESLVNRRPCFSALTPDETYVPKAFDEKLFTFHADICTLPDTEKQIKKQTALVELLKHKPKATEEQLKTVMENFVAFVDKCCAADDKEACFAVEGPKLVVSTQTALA

Here are results for four molecules from article PMC3625234, “The L-Cysteine Desulfurase NFS1 Is Localized in the Cytosol where it Provides the Sulfur for Molybdenum Cofactor Biosynthesis in Humans” (PLoS ONE, 2013).

Test [1] addresses NFS1Δ1-55 (purified) (human) (UniProt Q9Y697). In words: co-purification of co-expressed proteins; His6-NFS1Δ1-55 expressed in the presence of ISD11 in E. coli BL21(DE3) and purified as a complex.
The target in test [2] is ISD11-EGFP^1–157 fusion (human) (UniProt Q9HD34). In words: split reporter; split-EGFP complementation (EGFP 1-157 and EGFP 158-238, both fused C-terminally) in transiently cotransfected HeLa cells, fixed 12 h after transfection, confocal microscopy.
The target of test [3] is T1, MOCS3-EGFP^1–157 fusion (human) (UniProt O95396).
T1 sequence: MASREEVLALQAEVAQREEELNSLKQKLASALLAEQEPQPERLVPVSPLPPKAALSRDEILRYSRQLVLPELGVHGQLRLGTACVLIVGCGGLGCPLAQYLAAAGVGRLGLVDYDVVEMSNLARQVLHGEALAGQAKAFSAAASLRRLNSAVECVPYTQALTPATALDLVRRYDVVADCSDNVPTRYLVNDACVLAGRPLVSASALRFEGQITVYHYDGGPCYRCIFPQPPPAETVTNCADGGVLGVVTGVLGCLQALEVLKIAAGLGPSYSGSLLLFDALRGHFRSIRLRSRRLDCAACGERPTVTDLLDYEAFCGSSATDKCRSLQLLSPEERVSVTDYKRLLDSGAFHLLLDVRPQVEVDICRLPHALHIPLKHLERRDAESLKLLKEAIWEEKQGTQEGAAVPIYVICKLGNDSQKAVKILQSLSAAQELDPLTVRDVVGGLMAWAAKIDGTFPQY
The description is as above.

Test [4] concerns the target T2, MOCS3 purified after expression in Sf9 cells (human) (UniProt O95396).
T2 sequence: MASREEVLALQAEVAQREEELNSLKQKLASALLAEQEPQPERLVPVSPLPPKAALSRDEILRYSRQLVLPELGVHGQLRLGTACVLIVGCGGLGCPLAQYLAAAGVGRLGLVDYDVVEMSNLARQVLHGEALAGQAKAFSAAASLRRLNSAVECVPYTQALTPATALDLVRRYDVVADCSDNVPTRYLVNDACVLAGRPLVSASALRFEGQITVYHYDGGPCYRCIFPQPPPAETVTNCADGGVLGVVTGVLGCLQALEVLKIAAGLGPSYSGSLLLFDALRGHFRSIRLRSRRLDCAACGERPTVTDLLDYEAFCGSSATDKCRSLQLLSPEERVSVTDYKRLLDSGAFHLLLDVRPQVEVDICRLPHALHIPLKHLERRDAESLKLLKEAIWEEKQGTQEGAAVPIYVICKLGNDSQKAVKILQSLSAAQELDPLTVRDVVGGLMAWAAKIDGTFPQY
Nature of the test: SPR; Biacore T200, CM5 chip, target immobilized by amine coupling (400–600 RU), 25°C, 30 µL/min, 20 mM phosphate, 150 mM NaCl, 0.005% Tween 20, pH 7.4; analytes 0.31–10 µM; global fit, 1:1 binding, mean of 3 measurements; both purified. Background: In SPR one partner is held on a chip, and binding of the other changes the refractive index at the surface.

Consider “ISD11 (expressed from pACYCDuet1) (from UniProt Q9HD34 1-91)”, for which the binding entry in test [1] was “binds”.

Take “NFS1Δ1-55-EGFP^158–238 fusion (from UniProt Q9Y697 56-457) (domain or fragment)”: the binding entry in test [2] and in test [3] was “binds” in each case.

Take “bovine serum albumin (from UniProt P02769 25-607)”: the binding result in test [4] is given as “no binding”.

B1: MOCS3-EGFP^1–157 fusion (enzyme, UniProt O95396 1-460)
chain: MASREEVLALQAEVAQREEELNSLKQKLASALLAEQEPQPERLVPVSPLPPKAALSRDEILRYSRQLVLPELGVHGQLRLGTACVLIVGCGGLGCPLAQYLAAAGVGRLGLVDYDVVEMSNLARQVLHGEALAGQAKAFSAAASLRRLNSAVECVPYTQALTPATALDLVRRYDVVADCSDNVPTRYLVNDACVLAGRPLVSASALRFEGQITVYHYDGGPCYRCIFPQPPPAETVTNCADGGVLGVVTGVLGCLQALEVLKIAAGLGPSYSGSLLLFDALRGHFRSIRLRSRRLDCAACGERPTVTDLLDYEAFCGSSATDKCRSLQLLSPEERVSVTDYKRLLDSGAFHLLLDVRPQVEVDICRLPHALHIPLKHLERRDAESLKLLKEAIWEEKQGTQEGAAVPIYVICKLGNDSQKAVKILQSLSAAQELDPLTVRDVVGGLMAWAAKIDGTFPQY
In the case of B1, in test [3], the binding entry is given as “binds”.
